# PubChem BioAssay AID1508597 | Cure First, 2020
# Purpose: 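Genes whose silencing sensitises or protects ovarian cancer cells against rucaparib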 (primary screen)
# Cells: human ovarian carcinoma lines grown from tumours: OCI-P5x (papillary serous) and OCI-C5x (clear cell)
# Knock-down reagent: siRNA pool against human genes, 1.25 pmol siRNA per well
# Timing: 72 h or 96 h, depending on the cell culture
# Treatment: rucaparib 20 µM (about IC30) or vehicle, present until read-out
# Rucaparib or vehicle: Rucaparib
# Cell line: OCI-P5x (serous)
# Measurement: 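Luminescent ATP-based viability assay read 72 or 96 h after transfection, depending on culture, given as normalised percent viability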
# Scale: viability, normalised: higher = more viable cells remaining
# Call rule: 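Active when normalised viability falls below 80 percent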
# Calls: active = viability under 80%; inactive = viability 80% or more
# This is an unselected part of the about 2,100 reagents, under one of the conditions tested. 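Calls flag viability under 80% in either arm, not effects specific to rucaparib; the reference for percent is not stated.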 Unmarked entries are inactive. A reagent listed more than once was tested more than once; the source does not tell the runs apart. Reagent sequences are not shown. Not stated in the record: the 100% reference.
gene symbol,technical replicate,"viability, normalised (%)"
JAK2,1,123
JAK2,1,73 (active)
JAK2,2,121
JAK2,2,59.3 (active)
JAK2,3,123
JAK2,3,66.5 (active)
RPIA,1,81.7
RPIA,2,95.6
RPIA,3,83.9
MYB,1,47.4 (active)
MYB,2,60.3 (active)
MYB,3,62.2 (active)
PML,1,66.7 (active)
PML,1,57.9 (active)
PML,2,46.3 (active)
PML,2,61.5 (active)
PML,3,64 (active)
PML,3,55.9 (active)
LBR,1,55.4 (active)
LBR,2,59 (active)
LBR,3,44.7 (active)
INSRR,1,70.3 (active)
INSRR,2,52.6 (active)
INSRR,3,64.6 (active)
CDK19,1,58.4 (active)
CDK19,2,58 (active)
CDK19,3,63.3 (active)
PRMT6,1,48.7 (active)
PRMT6,2,76.6 (active)
PRMT6,3,67.9 (active)
SRSF1,1,82.6
SRSF1,2,88.4
SRSF1,3,83.6
HNRNPU,1,58.1 (active)
HNRNPU,2,88.5
HNRNPU,3,81.1
ADGRA3,1,54.4 (active)
ADGRA3,2,64.3 (active)
ADGRA3,3,69.8 (active)
ABCC1,1,92
ABCC1,2,97.2
ABCC1,3,70.4 (active)
CLOCK,1,53.4 (active)
CLOCK,2,49.4 (active)
CLOCK,3,48.9 (active)
UBR2,1,76.9 (active)
UBR2,2,94.9
UBR2,3,89
HMG20A,1,72.2 (active)
HMG20A,2,70.9 (active)
HMG20A,3,58.9 (active)
POLD2,1,72.9 (active)
POLD2,2,78.9 (active)
POLD2,3,84.7
ADCK2,1,115
ADCK2,2,110
ADCK2,3,96.7
RFK,1,82.4
RFK,2,64.8 (active)
RFK,3,90.6
SLIT1,1,49.5 (active)
SLIT1,2,62.6 (active)
SLIT1,3,76.3 (active)
DDX27,1,68 (active)
DDX27,2,102
DDX27,3,84.3
IP6K2,1,90
IP6K2,2,92.2
IP6K2,3,80.2
SDC4,1,108
SDC4,2,99.6
SDC4,3,111
BRSK1,1,66 (active)
BRSK1,2,63.3 (active)
BRSK1,3,87

Copied from the entries so far (8 entries):
gene symbol,technical replicate,"viability, normalised (%)"
CLOCK,3,48.9 (active)
UBR2,1,76.9 (active)
UBR2,2,94.9
UBR2,3,89
HMG20A,1,72.2 (active)
HMG20A,2,70.9 (active)
HMG20A,3,58.9 (active)
POLD2,1,72.9 (active)
